These results are taken from PMC6978338.

Amino acid sequences for entries named in this document (tags omitted).
UniProt P45481: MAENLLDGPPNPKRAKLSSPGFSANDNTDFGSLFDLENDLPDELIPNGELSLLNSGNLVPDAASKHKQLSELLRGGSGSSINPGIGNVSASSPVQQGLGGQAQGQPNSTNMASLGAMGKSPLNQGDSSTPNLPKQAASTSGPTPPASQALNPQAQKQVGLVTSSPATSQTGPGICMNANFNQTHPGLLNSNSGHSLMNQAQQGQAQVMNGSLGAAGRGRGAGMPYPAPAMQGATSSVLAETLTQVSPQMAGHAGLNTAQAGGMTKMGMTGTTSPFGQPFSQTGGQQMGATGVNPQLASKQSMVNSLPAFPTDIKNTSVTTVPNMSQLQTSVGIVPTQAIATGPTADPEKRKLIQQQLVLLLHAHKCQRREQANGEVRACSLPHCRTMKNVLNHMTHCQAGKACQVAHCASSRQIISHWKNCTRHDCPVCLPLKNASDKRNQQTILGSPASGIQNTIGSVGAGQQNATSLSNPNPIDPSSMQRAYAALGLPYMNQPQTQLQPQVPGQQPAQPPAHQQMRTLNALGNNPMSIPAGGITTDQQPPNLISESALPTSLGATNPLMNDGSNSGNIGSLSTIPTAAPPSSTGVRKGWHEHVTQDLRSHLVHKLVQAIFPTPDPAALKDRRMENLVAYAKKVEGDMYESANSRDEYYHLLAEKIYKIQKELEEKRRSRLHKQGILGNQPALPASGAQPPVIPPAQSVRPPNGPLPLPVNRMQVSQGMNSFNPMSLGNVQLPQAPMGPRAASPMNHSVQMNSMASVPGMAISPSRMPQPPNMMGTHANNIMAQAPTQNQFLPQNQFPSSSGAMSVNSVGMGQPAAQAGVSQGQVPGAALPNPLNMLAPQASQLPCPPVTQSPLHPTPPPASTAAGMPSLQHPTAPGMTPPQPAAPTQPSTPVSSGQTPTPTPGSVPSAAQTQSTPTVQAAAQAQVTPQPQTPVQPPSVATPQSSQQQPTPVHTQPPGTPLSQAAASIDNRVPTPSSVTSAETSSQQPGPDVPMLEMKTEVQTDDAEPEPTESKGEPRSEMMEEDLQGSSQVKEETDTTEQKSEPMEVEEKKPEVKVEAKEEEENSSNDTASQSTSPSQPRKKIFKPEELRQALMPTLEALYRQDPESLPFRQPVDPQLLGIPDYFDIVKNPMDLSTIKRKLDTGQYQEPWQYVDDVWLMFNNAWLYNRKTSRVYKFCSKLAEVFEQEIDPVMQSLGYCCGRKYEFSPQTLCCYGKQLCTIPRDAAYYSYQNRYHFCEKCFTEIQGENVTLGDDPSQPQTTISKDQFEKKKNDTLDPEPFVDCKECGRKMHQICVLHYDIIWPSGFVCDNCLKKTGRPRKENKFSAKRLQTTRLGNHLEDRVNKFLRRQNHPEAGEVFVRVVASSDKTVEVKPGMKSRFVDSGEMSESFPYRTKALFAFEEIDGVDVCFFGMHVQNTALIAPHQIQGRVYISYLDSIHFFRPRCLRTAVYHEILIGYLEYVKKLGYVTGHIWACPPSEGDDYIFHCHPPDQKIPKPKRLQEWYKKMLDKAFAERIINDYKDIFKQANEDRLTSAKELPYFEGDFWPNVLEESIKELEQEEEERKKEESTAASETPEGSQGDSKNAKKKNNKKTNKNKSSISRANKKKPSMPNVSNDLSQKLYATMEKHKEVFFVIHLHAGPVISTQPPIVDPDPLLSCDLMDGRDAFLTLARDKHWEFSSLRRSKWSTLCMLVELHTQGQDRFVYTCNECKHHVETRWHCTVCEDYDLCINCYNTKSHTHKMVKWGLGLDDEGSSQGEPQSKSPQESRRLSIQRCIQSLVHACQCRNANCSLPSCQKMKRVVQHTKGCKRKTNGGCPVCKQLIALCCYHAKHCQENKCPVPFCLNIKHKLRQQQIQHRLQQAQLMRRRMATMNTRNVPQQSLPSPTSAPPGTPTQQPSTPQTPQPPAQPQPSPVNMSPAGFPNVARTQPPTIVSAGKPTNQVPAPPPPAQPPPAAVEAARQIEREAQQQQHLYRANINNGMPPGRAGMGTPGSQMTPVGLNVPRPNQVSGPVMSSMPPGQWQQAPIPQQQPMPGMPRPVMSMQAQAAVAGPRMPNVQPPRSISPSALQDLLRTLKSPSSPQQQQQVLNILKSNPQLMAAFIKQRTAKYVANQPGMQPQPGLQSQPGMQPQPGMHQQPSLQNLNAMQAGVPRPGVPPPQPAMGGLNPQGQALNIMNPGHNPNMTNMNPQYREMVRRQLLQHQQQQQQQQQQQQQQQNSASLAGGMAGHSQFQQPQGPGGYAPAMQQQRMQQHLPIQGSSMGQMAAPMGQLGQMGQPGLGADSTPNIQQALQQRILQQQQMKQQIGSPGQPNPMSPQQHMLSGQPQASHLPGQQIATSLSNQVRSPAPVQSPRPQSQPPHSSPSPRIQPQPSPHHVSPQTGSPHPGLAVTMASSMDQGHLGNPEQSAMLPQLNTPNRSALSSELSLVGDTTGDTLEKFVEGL

For this test, the target named is T1, Zinc-finger E-box-binding homeobox 1 (ZEB1) (mouse (endogenous in bone ECs from mouse tibia)) (UniProt Q64318).
T1 sequence: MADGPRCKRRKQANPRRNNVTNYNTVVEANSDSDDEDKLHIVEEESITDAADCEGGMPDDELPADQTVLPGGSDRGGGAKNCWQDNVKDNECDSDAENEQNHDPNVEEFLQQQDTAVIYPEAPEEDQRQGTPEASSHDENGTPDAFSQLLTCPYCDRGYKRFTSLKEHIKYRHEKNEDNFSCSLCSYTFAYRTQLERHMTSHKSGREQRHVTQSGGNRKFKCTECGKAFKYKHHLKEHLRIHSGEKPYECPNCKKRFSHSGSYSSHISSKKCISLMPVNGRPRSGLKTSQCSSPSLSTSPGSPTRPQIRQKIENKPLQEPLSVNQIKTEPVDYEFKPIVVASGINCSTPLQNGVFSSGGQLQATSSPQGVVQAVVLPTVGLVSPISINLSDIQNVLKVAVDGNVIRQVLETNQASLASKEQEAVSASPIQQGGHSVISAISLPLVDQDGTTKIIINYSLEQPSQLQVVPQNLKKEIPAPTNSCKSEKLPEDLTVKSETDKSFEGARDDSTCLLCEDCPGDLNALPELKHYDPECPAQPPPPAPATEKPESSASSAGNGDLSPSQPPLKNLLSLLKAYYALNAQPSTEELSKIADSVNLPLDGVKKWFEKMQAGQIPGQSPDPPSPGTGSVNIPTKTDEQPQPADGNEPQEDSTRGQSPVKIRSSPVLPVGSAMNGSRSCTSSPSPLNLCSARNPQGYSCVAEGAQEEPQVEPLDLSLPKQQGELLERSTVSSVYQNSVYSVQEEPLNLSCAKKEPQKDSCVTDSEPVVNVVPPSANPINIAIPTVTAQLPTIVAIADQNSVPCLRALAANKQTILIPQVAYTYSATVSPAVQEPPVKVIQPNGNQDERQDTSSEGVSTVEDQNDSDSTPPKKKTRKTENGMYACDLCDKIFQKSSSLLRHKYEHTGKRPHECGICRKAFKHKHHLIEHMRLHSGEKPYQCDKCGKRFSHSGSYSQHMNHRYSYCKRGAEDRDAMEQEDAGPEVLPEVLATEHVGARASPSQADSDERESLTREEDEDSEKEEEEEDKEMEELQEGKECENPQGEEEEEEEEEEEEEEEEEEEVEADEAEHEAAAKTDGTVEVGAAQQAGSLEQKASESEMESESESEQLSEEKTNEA
As to the kind of experiment: co-IP; endogenous ZEB1 precipitated with anti-ZEB1 antibody and Protein A/G agarose beads from bone ECs (legend: nuclear extracts); IP lysis buffer 50 mM Tris-HCl, 150 mM NaCl, 1 mM EDTA, 1% NP40, pH 7.4; immunoblot for CBP, p300 and ZEB1.

These are yes or no findings as the source states them, for the method shown. Binding seen in cells or lysates may run through a third protein. Some entries that bind do so weakly or less than the wild type.

Take “CREB-binding protein (CBP) (from UniProt P45481 1-2441)”: the binding entry is on record as “binds”.
